These are yes or no findings as the source states them, for the method shown. In cells and extracts the contact can be indirect. These calls come from enrichment with a bait or labelling near it, and not all partners need be listed. Where a sequence is shown, tags or fusion partners need not be part of it. Values belong to the binder of their own block, whether it stands above or below them.
Columns and labels:
Assay in all cases: affinity purification with mass spectrometry
[1] = molecular target: T1, GFP-DA1 (Arabidopsis thaliana) (UniProt P0C7Q8)
T1 sequence: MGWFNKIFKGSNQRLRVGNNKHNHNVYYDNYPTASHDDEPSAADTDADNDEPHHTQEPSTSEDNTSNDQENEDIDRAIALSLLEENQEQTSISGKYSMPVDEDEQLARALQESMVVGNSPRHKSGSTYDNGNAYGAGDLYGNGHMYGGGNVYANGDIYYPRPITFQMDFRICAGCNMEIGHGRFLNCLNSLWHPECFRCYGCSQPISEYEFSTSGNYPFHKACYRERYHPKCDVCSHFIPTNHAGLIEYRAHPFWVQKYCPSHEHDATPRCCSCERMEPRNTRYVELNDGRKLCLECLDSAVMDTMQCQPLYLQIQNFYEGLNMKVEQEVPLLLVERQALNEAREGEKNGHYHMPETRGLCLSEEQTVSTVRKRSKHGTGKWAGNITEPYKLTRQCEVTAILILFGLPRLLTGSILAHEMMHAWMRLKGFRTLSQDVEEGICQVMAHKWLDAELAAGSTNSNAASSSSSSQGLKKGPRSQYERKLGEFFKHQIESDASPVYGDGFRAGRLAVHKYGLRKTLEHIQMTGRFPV

[2] = molecular target: T2, GFP-DAR1 (Arabidopsis thaliana) (UniProt Q8W4F0)
T2 sequence: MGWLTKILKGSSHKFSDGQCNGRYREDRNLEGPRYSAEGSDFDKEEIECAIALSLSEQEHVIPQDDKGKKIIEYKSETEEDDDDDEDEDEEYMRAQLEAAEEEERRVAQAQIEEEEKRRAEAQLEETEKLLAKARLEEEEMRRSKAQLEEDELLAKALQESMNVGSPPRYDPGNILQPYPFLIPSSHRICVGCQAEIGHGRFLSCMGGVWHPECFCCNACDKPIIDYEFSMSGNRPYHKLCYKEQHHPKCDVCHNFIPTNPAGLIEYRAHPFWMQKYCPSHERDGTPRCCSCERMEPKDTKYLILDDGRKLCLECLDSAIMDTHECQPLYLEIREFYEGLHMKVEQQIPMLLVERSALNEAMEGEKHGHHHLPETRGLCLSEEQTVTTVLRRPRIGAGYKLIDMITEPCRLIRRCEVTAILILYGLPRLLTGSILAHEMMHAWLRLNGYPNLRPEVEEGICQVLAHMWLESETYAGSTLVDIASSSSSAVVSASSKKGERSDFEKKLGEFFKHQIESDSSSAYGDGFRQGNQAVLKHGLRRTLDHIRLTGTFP

[3] = molecular target: T3, GFP-DAR2 (Arabidopsis thaliana) (UniProt Q0WSN2)
T3 sequence: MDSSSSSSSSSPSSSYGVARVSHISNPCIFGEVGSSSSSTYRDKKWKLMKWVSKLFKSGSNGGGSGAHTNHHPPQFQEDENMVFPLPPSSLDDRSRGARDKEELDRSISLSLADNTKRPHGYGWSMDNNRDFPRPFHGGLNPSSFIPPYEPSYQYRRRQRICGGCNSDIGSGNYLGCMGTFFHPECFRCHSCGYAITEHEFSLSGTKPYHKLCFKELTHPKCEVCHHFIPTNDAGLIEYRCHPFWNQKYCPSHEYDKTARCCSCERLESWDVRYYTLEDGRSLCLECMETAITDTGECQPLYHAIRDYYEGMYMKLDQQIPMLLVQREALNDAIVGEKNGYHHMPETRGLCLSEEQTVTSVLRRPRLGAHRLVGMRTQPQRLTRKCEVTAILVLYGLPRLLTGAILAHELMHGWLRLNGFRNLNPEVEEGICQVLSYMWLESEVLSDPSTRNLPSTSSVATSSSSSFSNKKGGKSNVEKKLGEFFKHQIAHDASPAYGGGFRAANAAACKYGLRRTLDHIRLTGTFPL

binding [1]: binds
binding [2]: binds
binding [3]: binds
B1: UBIQUITIN-SPECIFIC PROTEASE 12 (enzyme, UniProt Q9FPT1 1-1116)
chain: MTMMTPPPVDQPEDEEMLVPNSDLVDGPAQPMEVTQPETAASTVENQPAEDPPTLKFTWTIPNFSRQNTRKHYSDVFVVGGYKWRILIFPKGNNVDHLSMYLDVSDAASLPYGWSRYAQFSLAVVNQIHTRYTVRKETQHQFNARESDWGFTSFMPLSELYDPSRGYLVNDTVLVEAEVAVRKVLDYWSYDSKKETGFVGLKNQGATCYMNSLLQTLYHIPYFRKAVYHMPTTENDAPTASIPLALQSLFYKLQYNDTSVATKELTKSFGWDTYDSFMQHDVQELNRVLCEKLEDKMKGTVVEGTIQQLFEGHHMNYIECINVDFKSTRKESFYDLQLDVKGCKDVYASFDKYVEVERLEGDNKYHAEGHGLQDAKKGVLFIDFPPVLQLQLKRFEYDFMRDTMVKINDRYEFPLELDLDREDGKYLSPDADRSVRNLYTLHSVLVHSGGVHGGHYYAFIRPTLSDQWYKFDDERVTKEDLKRALEEQYGGEEELPQTNPGFNNNPPFKFTKYSNAYMLVYIRESDKDKIICNVDEKDIAEHLRVRLKKEQEEKEDKRRYKAQAHLYTIIKVARDEDLKEQIGKDIYFDLVDHDKVRSFRIQKQTPFQQFKEEVAKEFGVPVQLQRFWIWAKRQNHTYRPNRPLTPQEELQPVGQIREASNKANTAELKLFLEVEHLDLRPIPPPEKSKEDILLFFKLYDPEKAVLSYAGRLMVKSSSKPMDITGKLNEMVGFAPDEEIELFEEIKFEPCVMCEHLDKKTSFRLCQIEDGDIICFQKPLVNKEIECLYPAVPSFLEYVQNRQLVRFRALEKPKEDEFVLELSKQHTYDDVVEKVAEKLGLDDPSKLRLTSHNCYSQQPKPQPIKYRGVDHLSDMLVHYNQTSDILYYEVLDIPLPELQGLKTLKVAFHHATKEEVVIHNIRLPKQSTVGDVINELKTKVELSHPDAELRLLEVFYHKIYKIFPSTERIENINDQYWTLRAEEIPEEEKNIGPNDRLILVYHFAKETGQNQQVQNFGEPFFLVIHEGETLEEIKNRIQKKLHVSDEDFAKWKFAFMSMGRPEYLQDTDVVYNRFQRRDVYGAFEQYLGLEHADTTPKRAYAANQNRHAYEKPVKIYN

binding [1]: binds
binding [2]: binds
B2: UBP13 (enzyme, UniProt Q84WU2 1-1115)
chain: MTMMTPPPLDQQEDEEMLVPNPDLVEGPQPMEVAQTDPAATAVENPPPEDPPSLKFTWTIPMFTRLNTRKHYSDVFVVGGYKWRILIFPKGNNVDHLSMYLDVADAANLPYGWSRYSQFSLAVVNQVNNRYSIRKETQHQFNARESDWGFTSFMPLSELYEPTRGYLVNDTVLIEAEVAVRKVLDYWSYDSKKETGFVGLKNQGATCYMNSLLQTLYHIPYFRKAVYHMPTTENDAPTASIPLALQSLFYKLQYNDTSVATKELTKSFGWDTYDSFMQHDVQELNRVLCEKLEDKMKGTVVEGTIQKLFEGHHMNYIECINVDYKSTRKESFYDLQLDVKGCKDVYASFDKYVEVERLEGDNKYHAEGHDLQDAKKGVLFIDFPPVLQLQLKRFEYDFMRDTMVKINDRYEFPLQLDLDREDGRYLSPDADKSVRNLYTLHSVLVHSGGVHGGHYYAFIRPTLSDQWYKFDDERVTKEDVKRALEEQYGGEEELPQNNPGFNNPPFKFTKYSNAYMLVYIRESDKDKIICNVDEKDIAEHLRVRLKKEQEEKEDKRKYKAQAHLFTTIKVARDDDITEQIGKNIYFDLVDHEKVRSFRIQKQTPFQQFKEEVAKEFGVPVQLQRFWIWAKRQNHTYRPNRPLSPNEELQTVGQIREASNKANNAELKLFLEIERGPDDLPIPPPEKTSEDILLFFKLYDPENAVLRYVGRLMVKSSSKPMDIVGQLNKMAGFAPDEEIELFEEIKFEPCVMCEQIDKKTSFRLCQIEDGDIICYQKPLSIEESEFRYPDVPSFLEYVQNRELVRFRTLEKPKEDEFTMELSKLHTYDDVVERVAEKLGLDDPSKLRLTSHNCYSQQPKPQPIKYRGVDHLSDMLVHYNQTSDILYYEVLDIPLPELQGLKTLKVAFHSATKDEVIIHNIRLPKQSTVGDVINELKTKVELSHQDAELRLLEVFFHKIYKIFPSTERIENINDQYWTLRAEEIPEEEKNIGPNDRLIHVYHFTKEAGQNQQVQNFGEPFFLVIHEGETLEEIKTRIQKKLHVPDEDFAKWKFASFSMGRPDYLLDTDVVYNRFQRRDVYGAWEQYLGLEHIDNAPKRAYAANQNRHAYEKPVKIYN
